According to patent US7078178B2, “Methods of altering calcium transport” (priority 1999, dated 2006):
Some entries share one result that the patent states for a list of compounds.

Target: T1, CaT1 (Rattus norvegicus, UniProt Q9R186)
T1 construct: ID; No. 4; expressed in transfected cells; host or cells: Xenopus laevis oocytes injected with synthetic cRNA of the cloned rat cDNA
T1 sequence (Q9R186 41-767): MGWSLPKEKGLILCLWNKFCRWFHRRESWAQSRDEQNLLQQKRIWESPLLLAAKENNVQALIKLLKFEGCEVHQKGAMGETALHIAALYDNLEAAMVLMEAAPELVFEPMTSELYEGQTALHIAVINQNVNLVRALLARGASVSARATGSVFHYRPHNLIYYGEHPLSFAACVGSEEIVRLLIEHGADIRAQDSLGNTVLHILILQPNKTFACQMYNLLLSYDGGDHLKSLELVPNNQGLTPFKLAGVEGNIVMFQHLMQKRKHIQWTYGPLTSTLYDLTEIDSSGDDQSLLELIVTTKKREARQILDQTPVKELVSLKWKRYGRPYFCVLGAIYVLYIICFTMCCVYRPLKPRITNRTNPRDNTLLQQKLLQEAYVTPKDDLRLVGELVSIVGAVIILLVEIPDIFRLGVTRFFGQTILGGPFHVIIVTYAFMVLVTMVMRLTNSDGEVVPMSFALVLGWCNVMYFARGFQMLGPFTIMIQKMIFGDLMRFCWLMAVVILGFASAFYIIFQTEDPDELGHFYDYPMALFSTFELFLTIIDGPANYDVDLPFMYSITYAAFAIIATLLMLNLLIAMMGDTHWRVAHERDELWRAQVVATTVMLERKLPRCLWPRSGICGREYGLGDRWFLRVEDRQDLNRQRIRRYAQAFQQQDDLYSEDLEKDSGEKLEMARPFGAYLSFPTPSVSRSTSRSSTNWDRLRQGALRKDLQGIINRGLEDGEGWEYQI
Experiment: ^45Ca^2+ uptake assay in Xenopus laevis oocytes expressing CaT1
Format: cell-based
Settings: 10–100 μM L-type calcium channel blocker
Method: ^45Ca^2+ uptake assay—Defolliculated Xenopus laevis oocytes were injected with either 50 nl of water or RNA. ^45Ca^2+ uptake was assayed 3 days after injection of poly(A)^+ or 1–3 days a injection of synthetic complementary RNA (cRNA). For expression cloning, oocytes were incubated in modified Barth's solution supplemented with 1 mM SrCl2 (to avoid excessive loading of oocytes with Ca^2+) as well as penicillin, streptomycin and gentamycin at 1 mg/ml. Standard uptake solution contained the following components (in mM): NaCl 100, KCl 2, MgCl2 1, CaCl2 1 (including ^45Ca^2+), Hepes 10, pH 7.5. Uptake was performed at room temperature for 30 minutes (for the expression cloning procedure, 2 hour uptakes were employed), and oocytes were washed 6 times with ice-cold uptake medium plus 20 mM MgCl2. […] Control experiments were performed with the appropriate ethanol and DMSO concentrations. Unless stated specifically, data are presented as means obtained from at least three experiments with 7 to 10 oocytes per group with standard error of the mean (S.E.M.) as the index of dispersion. Statistical significance was defined as having a P value of less than 0.05 as determined by Student's t-test.

COc1ccc([C@@H]2Sc3ccccc3N(CCN(C)C)C(=O)[C@@H]2OC(C)=O)cc1 [diltiazem]
inhibition of CaT1-mediated Ca^2+ uptake: 10–15%
